Publication doi:10.1101/2022.09.04.506508
Results are given in words; binding and its absence hold for the method and conditions named. In cells and extracts the contact can be indirect. These calls come from enrichment with a bait or labelling near it, and not all partners need be listed. Values belong to the binder of their own block, whether it stands above or below them.

Target: YPET::LoxP::3xFlag::HPO-11 (C. elegans)
Assay: affinity purification with mass spectrometry

- binding: binds
B1: SMG-2 (protein, UniProt O76512 1-1069)
chain: MDDSDDEYSRSHGETLTFVDPEDDGVSIGNTQDSQFAYEQFSVPTQSSQATDLLPGGTDGTTNDLPFHDVEDDESDSEKSLTEEQHEQKLPEHACRYCGISDPLCVAKCTVCRKWFCNSNDGTSGGHIVHHMVRSQHKEAYTHKDSPCGDTQLECYRCGSKNVFNLGFIPGKKDQVVVIICRTPCASIAFQNDDNWSPEDWKSVIAEKQLLSWIVNVPSEEQVARARKITATQAVRMEELWRDHPEATVDDLNKPGLDREPDHVQLRYVDAHHYSKVFRPLVAIEAEYDRRVKESASQAVGTVRWEQGLRQSVLAFFHLPQFADGVMKLAKGDELRLKHSQTVDGSEWTKIGSVFKIPDNHGDEVGIEIRGAVDKSVMESRIMFTVDVVWNATTFERQYKALAALLNDSKAISPYLYQKLLGHPAEEMMLKFDLPRRLSVAGLPELNSSQMQAVKQVLTRPLSLIQGPPGTGKTVVSATIVYHLVQKTEGNVLVCSPSNIAVDHLAEKIHKTGLKVVRLCARSREHSETTVPYLTLQHQLKVMGGAELQKLIQLKDEAGELEFKDDLRYMQLKRVKEHELLAAADVICCTCSSAADARLSKIRTRTVLIDESTQATEPEILVSIMRGVRQLVLVGDHCQLGPVVICKKAAIAGLSQSLFERLVLLGIRPFRLQVQYRMHPVLSEFPSNVFYDGSLQNGVTENDRHMTGVDWHWPKPNKPAFFWHCSGSEELSASGTSFLNRTEAANVEKLVSKLIKAGVQPHQIGVITSYEGQRSFIVNYMHTQGTLNSKLYENVEIASVDAFQGREKDYIIVTCVRSNDILGIGFLSDPRRLNVAITRAKYGLVLVGNAKVLARHDLWHELINHYKSKEMLYEGPINALKPLNLALPKATIRTKNNIAGNANRFGIKRMQYTFNEYKSNDPSQPRLPPTYSNSQNLLSMSKLAQTFNKNVPIPAHMMDPNVYAAARNQKDRRRGDQRRPPPQAEAAMDLSQGMMSQQSQQYPPQGASSQSQYLLDGASSLSGWSQSQTTTTTTRHHHHRQNRNSQQQMSQDMDDIQQKMDDLLFSQDC

- binding: binds
B2: CPSF-1 (protein, UniProt Q9N4C2 1-1454)
chain: MYGYLRETDDSTAINFSAYGKFLPGENTGFQLLTIGAKFIRIFRVNPYVLKEPGEDNEEWQQKTKLECMFSCRLLNKCHSIAVARVPQLPDQDSILMTFDDAKLSIVSINEKERNMQTISLHAFENEYLRDGFINHFQPPLVRSDPSNRCAACLVYGKHIAILPFHENSKRIHSYVIPLKQIDPRLDNIADMVFLDGYYEPTILFLYEPIQTTPGRACVRYDTMCIMGVSVNIVDRQFAVVWQTANLPMDCSQLLPIPKPLGGALVFGSNTVVYLNQAVPPCGLVLNSCYDGFTKFPLKDLKHLKMTLDCSTSVYMEDGRIAVGSRDGDLFLLRLMTSSGGGTVKSLEFSKVYETSIAYSLTVCAPGHLFVGSRLGDSQLLEYTLLKTTRDCAVKRLKIDNKDPAAAEIELDEDDMELYGGAIEEQQNDDDEQIDESLQFRELDRLRNVGPVKSMCVGRPNYMSNDLVDAKRRDPVFDLVTASGHGKNGALCVHQRSLRPEIITSSLLEGAEQLWAVGRKENESHKYLIVSRVRSTLILELGEELVELEEQLFVTGEPTVAAGELSQGALAVQVTSTCIALVTDGQQMQEVHIDSNFPVIQASIVDPYVALLTQNGRLLLYELVMEPYVQLREVDISATSFATWHATAQNLTQLTSISIYADASEIMKFAAAEKSMGGGGGGDGEVSTAENAMMKKEQHEEAILLHGEDDDFLYGDEDETIMEQNFPVENGEATIKQSNTRKRKRLGHDAIQSSRGGEQSDAIDPTRTFSSISHWLIVSHENGRLSIHSLPEMEVVYQIGRFSNVPELLVDLTVEEEEKERKAKAQQAAKEASVPTDEAEQLNTEMKQLCERVLEAQIVGMGINQAHPILMAIVDEQVVLYEMFSSSNPIPGHLGISFRKLPHFICLRTSSHLNSDGKRAPFEMKINNGKRFSLIHPFERVSSVNNGVMIVGAVPTLLVYGAWGGMQTHQMTVDGPIKAFTPFNNENVLHGIVYMTQHKSELRIARMHPDFDYEMPYPVKKIEVGRTIHHVRYLMNSDVYAVVSSIPKPSNKIWVVMNDDKQEEIHEKDENFVLPAPPKYTLNLFSSQDWAAVPNTEISFEDMEAVTACEDVALKSESTISGLETLLAMGTVNNYGEEVLVRGRIILCEVIEVVPEPDQPTSNRKIKVLFDKEQKGPVTGLCAINGLLLCGMGQKVFIWQFKDNDLMGISFLDMHYYVYQLHSLRTIAIACDARESMSLIRFQEDNKAMSIASRDDRKCAQPPMASQLVVDGAHVGFLLSDETGNITMFNYAPEAPESNGGERLTVRAAINIGTNINAFVRLRGHTSLLQLNNEDEKEAIEQRMTTVFASLDGSFGFVRPLTEKSYRRLHFLQTFIGSVTPQIAGLHIKGSRSAKPSQPIVNGRNARNLIDGDVVEQYLHLSLYDKTDLARRLGVGRYHIIDDLMQLRRMAFYY
